Data: the M2OR odorant receptor database
Positions count from the first letter of the chain named. This is a selection; strong and weak results do not stand in their true shares. The calls were merged from several studies; some rest on single wells. Some of the results follow.

Chains of the proteins cited; added tags and fusions are not shown. Where a name states a change or a piece, a line headed by the entry shows the natural chain unless it says otherwise. Chains listed by the source or under a name are the forms on record and can include a tag or linker.
UniProt Q96R45: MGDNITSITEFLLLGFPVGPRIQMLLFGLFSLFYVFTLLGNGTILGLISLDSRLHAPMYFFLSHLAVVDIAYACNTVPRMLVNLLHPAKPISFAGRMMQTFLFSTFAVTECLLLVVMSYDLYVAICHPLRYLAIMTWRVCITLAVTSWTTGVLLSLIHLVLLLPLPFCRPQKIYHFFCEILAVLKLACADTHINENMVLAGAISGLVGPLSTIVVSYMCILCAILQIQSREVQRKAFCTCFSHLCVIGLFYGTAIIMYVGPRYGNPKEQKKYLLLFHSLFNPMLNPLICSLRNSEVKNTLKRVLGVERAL
OR2A2, as listed by the source: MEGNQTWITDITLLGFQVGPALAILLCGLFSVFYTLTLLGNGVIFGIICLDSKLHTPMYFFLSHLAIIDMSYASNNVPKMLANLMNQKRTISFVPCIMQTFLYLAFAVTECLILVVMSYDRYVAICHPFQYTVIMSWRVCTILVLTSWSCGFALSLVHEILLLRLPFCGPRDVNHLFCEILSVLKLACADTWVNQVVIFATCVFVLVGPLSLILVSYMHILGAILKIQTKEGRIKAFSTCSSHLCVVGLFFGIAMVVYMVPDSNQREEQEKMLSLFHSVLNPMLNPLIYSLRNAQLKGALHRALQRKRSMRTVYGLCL
OR2A7, as listed by the source: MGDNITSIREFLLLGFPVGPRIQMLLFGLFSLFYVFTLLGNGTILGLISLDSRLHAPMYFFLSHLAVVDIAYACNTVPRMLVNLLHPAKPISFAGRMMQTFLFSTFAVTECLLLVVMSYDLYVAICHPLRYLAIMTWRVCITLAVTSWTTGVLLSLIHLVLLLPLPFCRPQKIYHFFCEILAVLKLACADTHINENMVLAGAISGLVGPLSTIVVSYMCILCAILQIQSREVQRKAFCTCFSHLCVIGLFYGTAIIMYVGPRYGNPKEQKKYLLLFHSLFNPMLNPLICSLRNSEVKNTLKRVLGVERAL
OR2C1, as listed by the source: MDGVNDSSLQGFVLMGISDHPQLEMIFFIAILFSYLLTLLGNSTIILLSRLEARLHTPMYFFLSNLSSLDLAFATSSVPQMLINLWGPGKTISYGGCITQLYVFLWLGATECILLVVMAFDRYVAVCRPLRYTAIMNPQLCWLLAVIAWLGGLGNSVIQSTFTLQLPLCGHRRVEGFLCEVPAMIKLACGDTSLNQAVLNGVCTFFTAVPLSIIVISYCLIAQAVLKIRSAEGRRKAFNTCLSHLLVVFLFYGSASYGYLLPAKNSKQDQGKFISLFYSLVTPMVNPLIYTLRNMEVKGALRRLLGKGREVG

Tests used:
Conditions in all cases: stereoisomer not certain
OR2A1 [1] = tested on: T1, OR2A1
T1 sequence (whole entry): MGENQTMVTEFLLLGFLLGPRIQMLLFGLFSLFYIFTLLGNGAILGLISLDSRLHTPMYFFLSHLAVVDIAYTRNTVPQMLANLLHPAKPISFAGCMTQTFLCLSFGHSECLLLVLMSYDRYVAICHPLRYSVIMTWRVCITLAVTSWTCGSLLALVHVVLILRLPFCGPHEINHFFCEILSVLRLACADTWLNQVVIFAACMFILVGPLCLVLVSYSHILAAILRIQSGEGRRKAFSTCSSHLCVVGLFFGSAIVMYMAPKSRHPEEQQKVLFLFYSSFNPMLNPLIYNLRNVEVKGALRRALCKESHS
How it was run: (§1)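 Whether a receptor–molecule pair is responsive (active) rests on the original authors' judgment that its measured signal was statistically different from baseline. Pairs without that judgment are non-responsive (inactive). Sources used varied assay methods, commonly transient luciferase assays in mammalian cell lines.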

OR2A1 [2] = tested on: T2, OR2A1; remark: listed apart in the source
T2 sequence (whole entry): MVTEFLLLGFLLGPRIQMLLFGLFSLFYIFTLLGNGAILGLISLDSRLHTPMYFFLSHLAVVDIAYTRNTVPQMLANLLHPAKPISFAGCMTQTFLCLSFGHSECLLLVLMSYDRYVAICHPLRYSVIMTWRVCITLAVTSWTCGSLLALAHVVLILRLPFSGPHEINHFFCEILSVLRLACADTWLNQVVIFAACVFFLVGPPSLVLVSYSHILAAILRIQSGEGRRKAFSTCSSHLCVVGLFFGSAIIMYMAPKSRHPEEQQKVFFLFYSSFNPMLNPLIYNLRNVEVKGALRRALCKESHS
How it was run: as §1

OR2A2 (Homo sapiens) = target: T3, OR2A2 (Homo sapiens) (UniProt Q6IF42)
T3 sequence (whole entry): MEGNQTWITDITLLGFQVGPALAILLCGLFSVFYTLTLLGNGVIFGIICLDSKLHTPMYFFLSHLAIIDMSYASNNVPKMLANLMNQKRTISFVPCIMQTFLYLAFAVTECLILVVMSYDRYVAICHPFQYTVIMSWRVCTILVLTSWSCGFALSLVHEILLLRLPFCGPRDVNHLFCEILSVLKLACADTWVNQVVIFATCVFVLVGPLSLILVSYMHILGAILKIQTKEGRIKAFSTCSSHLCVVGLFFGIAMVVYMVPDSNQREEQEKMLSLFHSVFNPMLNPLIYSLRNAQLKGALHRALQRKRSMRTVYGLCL
How it was run: as §1

OR2A25 (Homo sapiens) = target: T4, OR2A25 (Homo sapiens) (UniProt A4D2G3)
T4 sequence (whole entry): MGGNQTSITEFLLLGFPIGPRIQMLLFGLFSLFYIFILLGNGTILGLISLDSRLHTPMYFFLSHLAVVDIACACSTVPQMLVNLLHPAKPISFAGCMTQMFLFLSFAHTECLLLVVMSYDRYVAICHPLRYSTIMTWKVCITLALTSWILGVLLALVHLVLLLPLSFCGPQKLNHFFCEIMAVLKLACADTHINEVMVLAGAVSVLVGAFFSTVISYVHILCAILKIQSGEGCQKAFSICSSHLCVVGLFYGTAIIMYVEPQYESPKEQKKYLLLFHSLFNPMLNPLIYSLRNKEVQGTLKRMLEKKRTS
How it was run: as §1

OR2A2 = tested on: T5, OR2A2
T5 sequence (whole entry): T3 sequence (whole entry) with F280L
How it was run: as §1

OR2A4 (Homo sapiens) = target: T6, OR2A4 (Homo sapiens) (UniProt O95047)
T6 sequence (whole entry): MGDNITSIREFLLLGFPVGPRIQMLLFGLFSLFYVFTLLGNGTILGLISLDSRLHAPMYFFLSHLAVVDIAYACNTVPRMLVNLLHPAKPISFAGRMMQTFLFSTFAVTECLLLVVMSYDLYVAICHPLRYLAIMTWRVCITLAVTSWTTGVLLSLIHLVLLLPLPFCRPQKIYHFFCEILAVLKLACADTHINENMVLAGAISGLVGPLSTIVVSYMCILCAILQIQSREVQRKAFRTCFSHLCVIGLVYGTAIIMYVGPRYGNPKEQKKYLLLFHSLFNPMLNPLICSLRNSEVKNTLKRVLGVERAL
How it was run: as §1

OR2A5 (Homo sapiens) = target: T7, OR2A5 (Homo sapiens) (UniProt Q96R48)
T7 sequence (whole entry): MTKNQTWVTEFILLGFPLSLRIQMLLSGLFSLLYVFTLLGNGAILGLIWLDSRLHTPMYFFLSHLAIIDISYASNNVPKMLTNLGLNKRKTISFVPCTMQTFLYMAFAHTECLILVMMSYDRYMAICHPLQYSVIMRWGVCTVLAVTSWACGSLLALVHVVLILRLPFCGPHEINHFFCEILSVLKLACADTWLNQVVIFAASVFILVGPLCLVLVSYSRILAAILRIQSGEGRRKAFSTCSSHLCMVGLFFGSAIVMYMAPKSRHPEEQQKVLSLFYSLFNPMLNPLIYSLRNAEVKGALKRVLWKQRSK
How it was run: as §1

OR2A7 (Homo sapiens) = target: T8, OR2A7 (Homo sapiens) (UniProt Q96R45)
T8 sequence (whole entry): T6 sequence (whole entry) with R9T, R238C, V250F
How it was run: as §1

OR2A7 = tested on: T9, OR2A7
T9 sequence (whole entry): T6 sequence (whole entry) with R238C, V250F
How it was run: as §1

OR2AG1 (Homo sapiens) = target: T10, OR2AG1 (Homo sapiens) (UniProt Q9H205)
T10 sequence (whole entry): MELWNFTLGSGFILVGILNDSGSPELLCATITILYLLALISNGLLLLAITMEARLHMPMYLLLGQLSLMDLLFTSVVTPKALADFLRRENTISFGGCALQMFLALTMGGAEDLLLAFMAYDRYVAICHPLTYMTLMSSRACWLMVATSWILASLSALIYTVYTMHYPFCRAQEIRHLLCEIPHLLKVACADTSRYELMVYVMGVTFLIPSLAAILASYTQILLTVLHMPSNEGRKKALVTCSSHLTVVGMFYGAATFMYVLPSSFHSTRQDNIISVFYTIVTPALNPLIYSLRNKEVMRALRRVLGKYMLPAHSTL
How it was run: as §1

OR2AG2 (Homo sapiens) = target: T11, OR2AG2 (Homo sapiens) (UniProt A6NM03)
T11 sequence (whole entry): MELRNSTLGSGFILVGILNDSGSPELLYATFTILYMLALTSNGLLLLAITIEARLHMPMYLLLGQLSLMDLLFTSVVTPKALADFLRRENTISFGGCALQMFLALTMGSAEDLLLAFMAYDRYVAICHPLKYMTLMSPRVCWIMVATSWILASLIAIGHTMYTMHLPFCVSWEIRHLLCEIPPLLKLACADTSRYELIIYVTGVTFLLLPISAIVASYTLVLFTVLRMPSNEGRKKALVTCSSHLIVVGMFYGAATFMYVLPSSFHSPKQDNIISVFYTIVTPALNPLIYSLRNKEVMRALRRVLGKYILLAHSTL
How it was run: as §1

OR2AP1 (Homo sapiens) = target: T12, OR2AP1 (Homo sapiens) (UniProt Q8NGE2)
T12 sequence (whole entry): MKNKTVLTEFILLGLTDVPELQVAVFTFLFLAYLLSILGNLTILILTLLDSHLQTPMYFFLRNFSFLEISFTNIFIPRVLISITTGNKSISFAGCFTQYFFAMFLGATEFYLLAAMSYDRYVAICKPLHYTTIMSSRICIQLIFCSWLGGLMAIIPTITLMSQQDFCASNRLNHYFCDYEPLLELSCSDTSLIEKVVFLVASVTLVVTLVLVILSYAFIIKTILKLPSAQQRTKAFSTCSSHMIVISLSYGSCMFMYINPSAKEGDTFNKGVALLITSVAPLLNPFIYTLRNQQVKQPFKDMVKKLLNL
How it was run: as §1

OR2AT4 (Homo sapiens) = target: T13, OR2AT4 (Homo sapiens) (UniProt A6NND4)
T13 sequence (whole entry): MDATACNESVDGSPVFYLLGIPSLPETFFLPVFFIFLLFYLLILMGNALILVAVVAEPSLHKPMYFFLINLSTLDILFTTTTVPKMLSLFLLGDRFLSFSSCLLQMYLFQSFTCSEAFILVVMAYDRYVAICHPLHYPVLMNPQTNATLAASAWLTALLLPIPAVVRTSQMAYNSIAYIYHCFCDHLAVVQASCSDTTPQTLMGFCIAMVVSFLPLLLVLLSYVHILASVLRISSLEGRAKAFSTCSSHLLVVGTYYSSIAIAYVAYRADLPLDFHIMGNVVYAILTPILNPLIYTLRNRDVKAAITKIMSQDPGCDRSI
How it was run: as §1

OR2B11 (Homo sapiens) = target: T14, OR2B11 (Homo sapiens) (UniProt Q5JQS5)
T14 sequence (whole entry): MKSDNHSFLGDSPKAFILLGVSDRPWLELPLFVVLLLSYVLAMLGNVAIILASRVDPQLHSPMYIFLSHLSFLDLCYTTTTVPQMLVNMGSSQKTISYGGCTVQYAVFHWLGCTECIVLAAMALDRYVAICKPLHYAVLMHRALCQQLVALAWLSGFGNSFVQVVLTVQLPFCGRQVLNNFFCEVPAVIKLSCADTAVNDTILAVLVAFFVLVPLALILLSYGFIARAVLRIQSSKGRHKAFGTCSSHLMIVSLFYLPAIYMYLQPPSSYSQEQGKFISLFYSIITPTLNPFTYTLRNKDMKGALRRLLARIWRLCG
How it was run: as §1

OR2B2 (Homo sapiens) = target: T15, OR2B2 (Homo sapiens) (UniProt Q9GZK3)
T15 sequence (whole entry): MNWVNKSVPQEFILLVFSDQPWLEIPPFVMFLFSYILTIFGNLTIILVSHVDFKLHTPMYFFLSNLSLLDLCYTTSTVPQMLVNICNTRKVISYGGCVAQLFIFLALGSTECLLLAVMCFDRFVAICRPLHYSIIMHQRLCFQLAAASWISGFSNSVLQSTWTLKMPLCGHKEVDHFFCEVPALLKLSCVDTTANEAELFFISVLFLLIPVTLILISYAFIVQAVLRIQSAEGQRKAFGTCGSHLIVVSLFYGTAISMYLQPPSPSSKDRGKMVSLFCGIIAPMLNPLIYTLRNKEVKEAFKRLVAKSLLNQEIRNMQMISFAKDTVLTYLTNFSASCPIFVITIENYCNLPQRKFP
How it was run: as §1

OR2B3 (Homo sapiens) = target: T16, OR2B3 (Homo sapiens) (UniProt O76000)
T16 sequence (whole entry): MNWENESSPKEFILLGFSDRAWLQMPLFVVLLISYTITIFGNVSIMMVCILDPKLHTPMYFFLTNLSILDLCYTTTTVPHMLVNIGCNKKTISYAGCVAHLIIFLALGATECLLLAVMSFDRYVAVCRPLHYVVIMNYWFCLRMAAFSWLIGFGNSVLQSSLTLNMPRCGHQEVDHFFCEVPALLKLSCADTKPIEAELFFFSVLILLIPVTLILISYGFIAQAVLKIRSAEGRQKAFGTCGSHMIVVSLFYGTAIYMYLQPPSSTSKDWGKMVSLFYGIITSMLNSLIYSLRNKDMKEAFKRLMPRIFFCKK
How it was run: as §1

OR2B6 (Homo sapiens) = target: T17, OR2B6 (Homo sapiens) (UniProt P58173)
T17 sequence (whole entry): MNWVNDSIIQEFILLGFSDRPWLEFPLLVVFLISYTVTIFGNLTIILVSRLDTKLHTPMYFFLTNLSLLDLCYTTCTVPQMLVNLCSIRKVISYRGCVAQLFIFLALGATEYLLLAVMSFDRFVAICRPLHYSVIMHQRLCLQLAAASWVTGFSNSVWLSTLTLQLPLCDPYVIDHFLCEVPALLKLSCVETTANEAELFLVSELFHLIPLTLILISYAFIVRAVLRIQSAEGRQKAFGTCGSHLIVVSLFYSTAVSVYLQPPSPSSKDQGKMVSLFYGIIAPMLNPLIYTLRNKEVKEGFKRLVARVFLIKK
How it was run: as §1

OR2B8 = tested on: T18, OR2B8
T18 sequence (whole entry): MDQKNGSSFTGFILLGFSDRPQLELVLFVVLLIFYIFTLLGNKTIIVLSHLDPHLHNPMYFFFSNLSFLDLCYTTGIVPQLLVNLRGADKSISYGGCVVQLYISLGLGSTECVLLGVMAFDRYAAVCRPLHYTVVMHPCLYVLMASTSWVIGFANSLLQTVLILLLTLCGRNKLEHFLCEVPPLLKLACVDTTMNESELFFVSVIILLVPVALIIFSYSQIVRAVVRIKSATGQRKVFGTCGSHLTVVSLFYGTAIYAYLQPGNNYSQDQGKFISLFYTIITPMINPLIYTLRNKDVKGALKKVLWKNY
How it was run: as §1

OR2C1 [3] = tested on: T19, OR2C1
T19 sequence (whole entry): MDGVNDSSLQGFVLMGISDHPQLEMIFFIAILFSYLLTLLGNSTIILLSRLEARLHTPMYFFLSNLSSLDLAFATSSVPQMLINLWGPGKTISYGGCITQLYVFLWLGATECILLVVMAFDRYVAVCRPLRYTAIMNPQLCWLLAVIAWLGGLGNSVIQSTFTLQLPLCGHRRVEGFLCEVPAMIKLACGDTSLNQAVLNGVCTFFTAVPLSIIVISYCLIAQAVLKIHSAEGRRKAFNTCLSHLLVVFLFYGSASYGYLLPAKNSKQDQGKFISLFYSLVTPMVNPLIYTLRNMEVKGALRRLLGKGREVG
How it was run: as §1

OR2C1 [4] = tested on: T20, OR2C1; remark: listed apart in the source
T20 sequence (whole entry): T19 sequence (whole entry) with H229R
How it was run: as §1

Measured: odorant receptor agonist call

CCCCOC(C)=O
inactive: all assays above

CCC(C)=O
inactive: all assays above
